# These are yes or no findings as the source states them, for the method shown. Binding seen in cells or lysates may run through a third protein. Some binding calls cover weakened binding; strength is not graded here.
# Sequences of proteins named here, by UniProt entry; tags and fusion partners are left off. Residues count along the entry.
# UniProt P36222, residues 22-383: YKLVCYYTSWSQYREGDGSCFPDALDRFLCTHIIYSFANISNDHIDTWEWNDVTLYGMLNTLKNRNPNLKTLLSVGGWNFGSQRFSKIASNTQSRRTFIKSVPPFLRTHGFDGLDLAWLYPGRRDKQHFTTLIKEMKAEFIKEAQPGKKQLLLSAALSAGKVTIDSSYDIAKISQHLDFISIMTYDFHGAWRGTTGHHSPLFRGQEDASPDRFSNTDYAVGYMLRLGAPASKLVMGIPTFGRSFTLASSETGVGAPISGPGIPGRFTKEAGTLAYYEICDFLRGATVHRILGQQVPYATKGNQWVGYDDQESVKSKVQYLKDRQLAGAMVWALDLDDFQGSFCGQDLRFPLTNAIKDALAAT
# UniProt P16070, residues 21-742: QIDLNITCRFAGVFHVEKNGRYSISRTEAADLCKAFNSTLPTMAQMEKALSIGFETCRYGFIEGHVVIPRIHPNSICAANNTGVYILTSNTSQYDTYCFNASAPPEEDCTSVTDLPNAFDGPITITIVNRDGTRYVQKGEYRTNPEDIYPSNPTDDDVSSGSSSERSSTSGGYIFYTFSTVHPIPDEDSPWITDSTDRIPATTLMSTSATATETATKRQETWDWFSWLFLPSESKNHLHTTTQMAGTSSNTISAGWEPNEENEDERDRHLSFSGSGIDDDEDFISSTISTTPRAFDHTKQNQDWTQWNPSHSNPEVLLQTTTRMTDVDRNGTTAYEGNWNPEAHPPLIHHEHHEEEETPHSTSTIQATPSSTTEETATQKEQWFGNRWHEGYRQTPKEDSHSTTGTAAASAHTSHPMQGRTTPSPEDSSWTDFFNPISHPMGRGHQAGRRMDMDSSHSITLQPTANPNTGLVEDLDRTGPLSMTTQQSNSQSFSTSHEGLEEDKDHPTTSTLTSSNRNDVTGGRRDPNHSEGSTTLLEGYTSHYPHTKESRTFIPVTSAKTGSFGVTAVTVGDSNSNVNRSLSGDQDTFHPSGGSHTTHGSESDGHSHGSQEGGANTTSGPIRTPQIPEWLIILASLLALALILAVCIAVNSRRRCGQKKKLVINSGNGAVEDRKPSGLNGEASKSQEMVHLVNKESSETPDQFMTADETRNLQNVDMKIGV
# Molecular target: Chitinase 3-like protein 1 (Chi3l1), recombinant (UniProt P36222)
# Assay: co-IP
substance,measurement,value
CD44 (from UniProt P16070 21-742) (receptor),binding,binds
